These are literature values, as cited in patent US7217770B2, “Stable polymeric micelle-type drug composition and method for the preparation thereof” (Samyang Corporation, priority 2000, dated 2007).

On to `CC(=O)O[C@H]1C(=O)[C@@]2(C)[C@H]([C@H](OC(=O)c3ccccc3)[C@]3(O)C[C@H](OC(=O)[C@H](O)[C@@H](NC(=O)c4ccccc4)c4ccccc4)C(C)=C1C3(C)C)[C@]1(OC(C)=O)CO[C@@H]1C[C@@H]2O` [paclitaxel], for which the solubility in water entry is given as “less than 0.01 mg/mL”.
